PubChem BioAssay AID504808 | Drosophila RNAi Screening Center – 2011
The deposit covers about 21,000 reagents; this is an unselected part of those that have a named target and a result. In the full data, 18 (0.084%) got an active call. 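Raw counts without plate normalisation, one of two replicates; the ratio scores behind the calls were not deposited.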 A plus sign joins genes that one reagent is predicted to hit. No sequences are given here. Not stated in the record: the amount of reagent, the time to read-out.

Assay: 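Chromatin factors that keep E2F targets switched off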 (primary screen)
Cells: Drosophila S2 cells
Reagents: long dsRNA against Drosophila genes
Measurement: 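Firefly luciferase driven by E2F sites, normalised to Renilla luciferase on the same minimal promoter, measured by plate reader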
Reading the numbers: E2F firefly: higher = more E2F reporter activity; Renilla normaliser: higher = more normaliser reporter signal
Hit rule: 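a knock-down counted as active when the firefly/Renilla E2F signal rose above 50%, a threshold chosen arbitrarily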

predicted target | DRSC id | E2F firefly, rep 1 | Renilla normaliser, rep 1 | Outcome
Dhdds | DRSC17756 | 48526 | 3309 | inactive
hay | DRSC11354 | 70115 | 3437 | inactive
Obp56g | DRSC06432 | 1.46e5 | 5589 | inactive
Bap170 | DRSC04964 | 89704 | 3903 | inactive
pirk | DRSC04269 | 1.10e5 | 4797 | inactive
Rb97D | DRSC16815 | 1.18e5 | 5706 | inactive
ChAT | DRSC13314 | 79634 | 2125 | inactive
ChAT | DRSC16609 | 1.38e5 | 7848 | inactive
aly | DRSC08707 | 1.05e5 | 4142 | inactive
Ubc2 | DRSC01137 | 1.42e5 | 6486 | inactive
Ubc2 | DRSC03468 | 1.47e5 | 5075 | inactive
TyrRS-m | DRSC04286 | 89341 | 184 | inactive
CG7203 | DRSC03026 | 1.55e5 | 5305 | inactive
wit | DRSC08741 | 76162 | 3955 | inactive
Cmpk | DRSC16643 | 1907 | 1004 | inactive
CG14075 | DRSC10080 | 1.16e5 | 5457 | inactive
CG15145 | DRSC02446 | 1.08e5 | 4561 | inactive
nvy | DRSC04705 | 92536 | 3347 | inactive
Cpr31A | DRSC02779 | 1.44e5 | 5500 | inactive
CG18814 | DRSC10347 | 1.68e5 | 6434 | inactive
CG42512 + CG32573 | DRSC19532 | 2.46e5 | 7134 | inactive
CG42512 + CG32573 | DRSC19906 | 1.61e5 | 6502 | inactive
Cyp6a13 | DRSC07375 | 2951 | 216 | inactive
CheB53a | DRSC06625 | 1.40e5 | 5345 | inactive
CG30496 | DRSC06805 | 4198 | 110 | inactive
PIG-T | DRSC17774 | 49822 | 4247 | inactive
CG14715 | DRSC14938 | 59644 | 3384 | inactive
CG34033 | DRSC05190 | 1.48e5 | 6251 | inactive
CG42505 + CG42504 + CG31358 | DRSC15235 | 66198 | 3511 | inactive
CG42505 + CG42504 + CG31358 | DRSC15308 | 55025 | 2896 | inactive
CG42505 + CG42504 + CG31358 | DRSC15309 | 1.30e5 | 5501 | inactive
Os-C | DRSC16778 | 1.32e5 | 6786 | inactive
CG2224 | DRSC15429 | 1.30e5 | 6972 | inactive
CG9743 | DRSC16552 | 1.20e5 | 6148 | inactive
CG10232 | DRSC14218 | 1.03e5 | 5204 | inactive
Wdr92 | DRSC10187 | 1.65e5 | 8584 | inactive
Npc2e | DRSC15522 | 1.36e5 | 5653 | inactive
Tip60 | DRSC18661 | 2105 | 896 | inactive
CG7179 | DRSC03020 | 1.56e5 | 5403 | inactive
RanBP3 | DRSC14217 | 66648 | 4010 | inactive
CG34236 | DRSC05435 | 1.21e5 | 5016 | inactive
CG43996 | DRSC19456 | 2.15e5 | 7600 | inactive
CG43996 | DRSC19457 | 1.57e5 | 6859 | inactive
Root | DRSC15972 | 1.06e5 | 6163 | inactive
CG14645 | DRSC12231 | 1.34e5 | 6570 | inactive
can | DRSC10664 | 48701 | 2720 | inactive
CG14960 | DRSC08419 | 1.01e5 | 4287 | inactive
Cyp6a9 | DRSC07385 | 1.15e5 | 4619 | inactive
CG18048 | DRSC12573 | 1.36e5 | 6994 | inactive
CG16957 | DRSC02545 | 1.09e5 | 4603 | inactive
Gbeta5 | DRSC17754 | 1.21e5 | 5912 | inactive
fuss | DRSC17200 | 1.14e5 | 5950 | inactive
Faf2 | DRSC03325 | 77901 | 3278 | inactive
CG7606 | DRSC13246 | 89343 | 2626 | inactive
CG7606 | DRSC16268 | 95728 | 4792 | inactive
CG32650 | DRSC19899 | 7623 | 764 | inactive
CG7924 | DRSC10931 | 81015 | 3649 | inactive
CG1246 | DRSC08275 | 1.14e5 | 5097 | inactive
U2af50 | DRSC20297 | 7765 | 812 | inactive
CG13376 | DRSC17901 | 1.14e5 | 5829 | inactive
Pdk | DRSC07504 | 2879 | 205 | inactive
Obp19c | DRSC20528 | 1.36e5 | 6568 | inactive
t | DRSC17815 | 1.26e5 | 5277 | inactive
CG5863 | DRSC15898 | 1.15e5 | 5753 | inactive
CG2816 | DRSC00539 | 1.65e5 | 5327 | inactive
COX7AL | DRSC15313 | 1.29e5 | 6585 | inactive
para | DRSC19141 | 78494 | 2573 | inactive
para | DRSC20360 | 1.44e5 | 5774 | inactive
Pgm1 | DRSC10490 | 66616 | 2915 | inactive
CG11600 | DRSC14332 | 1.26e5 | 5375 | inactive
Naa15-16 | DRSC19440 | 51441 | 3395 | inactive
CG13989 | DRSC02321 | 1.48e5 | 4915 | inactive
cib | DRSC18660 | 94879 | 5222 | inactive
Xbp1 | DRSC04553 | 50001 | 3757 | inactive
nw | DRSC06749 | 75613 | 3534 | inactive
nw | DRSC06896 | 1.46e5 | 4773 | inactive
Skp2 | DRSC12329 | 71472 | 4015 | inactive
CG13039 | DRSC09920 | 1.51e5 | 6741 | inactive
CG13185 | DRSC06310 | 3332 | 197 | inactive
CG7130 | DRSC11797 | 1.33e5 | 6857 | inactive
CG15534 | DRSC15070 | 1.22e5 | 6780 | inactive
CG4681 | DRSC04481 | 1.08e5 | 4709 | inactive
Oatp58Dc | DRSC04363 | 94066 | 3624 | inactive
Osi18 | DRSC12181 | 1.14e5 | 5052 | inactive

11 successive records already listed, for reference:
predicted target | DRSC id | E2F firefly, rep 1 | Renilla normaliser, rep 1 | Outcome
Dhdds | DRSC17756 | 48526 | 3309 | inactive
hay | DRSC11354 | 70115 | 3437 | inactive
Obp56g | DRSC06432 | 1.46e5 | 5589 | inactive
Bap170 | DRSC04964 | 89704 | 3903 | inactive
pirk | DRSC04269 | 1.10e5 | 4797 | inactive
Rb97D | DRSC16815 | 1.18e5 | 5706 | inactive
ChAT | DRSC13314 | 79634 | 2125 | inactive
ChAT | DRSC16609 | 1.38e5 | 7848 | inactive
aly | DRSC08707 | 1.05e5 | 4142 | inactive
Ubc2 | DRSC01137 | 1.42e5 | 6486 | inactive
Ubc2 | DRSC03468 | 1.47e5 | 5075 | inactive
